PubChem BioAssay AID1671195, Yale University, 2021

Purpose: 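Knockdowns that increase or decrease uptake of fluorescent LDL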 (primary screen)
Cells: human Huh7 hepatoma cells
Knock-down reagent: siRNA pool against human genes, 18 nM
Duration: about 2 to 2.5 days of knockdown, then 8 h LDL uptake
Challenge: DiI-labelled LDL at 30 µg/ml for 8 h, in lipoprotein-deficient serum medium
Detection: 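Fluorescent LDL signal imaged in cells, scaled to the plate median, robust z-score for each replicate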
Scale: robust z-score: higher = more LDL uptake after knockdown
Hit rule: 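Active when two or more replicates show a robust z-score above 2 or below -2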
Here is a random part of about 22,000 reagents tested. Of all reagents, about 1,510 (6.9%) got an active call. 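Active includes knockdowns raising or lowering LDL uptake; positive z-scores mean more uptake, negative mean less.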 Reagent sequences are not shown.

| Target gene | robust z-score, replicate 1 | robust z-score, replicate 2 | robust z-score, replicate 3 | call |
| --- | --- | --- | --- | --- |
| SDC3 | -1.17 | -1.59 | -1.51 | inactive |
| RNASE8 | -0.878 | -1.15 | -0.875 | inactive |
| CFAP119 | -0.634 | 0.0559 | 0.0442 | inactive |
| ADAMTS9 | 0.128 | 0.488 | -0.0487 | inactive |
| TMED4 | -0.779 | -0.958 | -0.824 | inactive |
| TNNI3 | -0.845 | -2.14 | -0.256 | inactive |
| HERC1 | 1.86 | 4.6 | 3.89 | active |
| MRPL55 | 0.203 | 0.646 | 0.172 | inactive |
| TACR3 | 0.562 | -1.04 | 0.526 | inactive |
| SMAD9 | 1.91 | 4.39 | 2.58 | active |
| ADD3 | -0.609 | -0.623 | -0.92 | inactive |
| MMS19 | -0.945 | -0.989 | -0.98 | inactive |
| OSBP | -1.49 | -0.697 | -0.81 | inactive |
| CACYBP | -1.11 | 0.0709 | 1.17 | inactive |
| B2M | -1.79 | -1.34 | -1.06 | inactive |
| TMEM170A | -2.25 | -2.65 | -2.42 | active |
| LOC389983 (retired record) | 0.729 | 0.884 | 0.981 | inactive |
| LOC442399 (retired record) | -0.32 | 0.138 | 0.107 | inactive |
| ATRX | 0.289 | -0.0261 | 0.3 | inactive |
| SLC9C2 | -0.952 | -1.06 | -0.619 | inactive |
| SPRED2 | -0.895 | -1.16 | -0.629 | inactive |
| SEMA3B | -1.24 | 0.358 | -0.405 | inactive |
| DSE | -1.54 | -0.282 | -1.39 | inactive |
| TSPOAP1 | -0.613 | -0.796 | -1.13 | inactive |
| LOC387784 (retired record) | 0.275 | -0.437 | -0.0367 | inactive |
| PKP2 | -1.82 | -2.49 | -1.62 | inactive |
| PLEKHA8P1 | 5.01 | 4.49 | 0.522 | active |
| SH3BP2 | 0.795 | -1.06 | 0.116 | inactive |
| C17orf78 | 0.69 | 0.558 | 0.438 | inactive |
| LOC440720 (retired record) | 1.55 | 2.45 | 2.11 | active |
| S1PR5 | -1.4 | -1.03 | -1.21 | inactive |
| NEK4 | -1.12 | -1.54 | -1.81 | inactive |
| MUC20 | 0.233 | -0.0954 | -0.337 | inactive |
| RGL2 | -0.886 | -0.214 | -0.698 | inactive |
| CABP5 | 0.249 | 0.619 | 0.561 | inactive |
| LOC388204 (retired record) | 1.55 | 1.33 | 2.46 | inactive |
| LOC441164 (retired record) | 1.45 | 1.66 | 1.31 | inactive |
| SNAPC1 | 2.14 | 2.76 | 1.69 | active |
| LOC401441 (retired record) | -0.00468 | -0.247 | 0.271 | inactive |
| DCAF16 | 0.384 | -0.353 | 0.43 | inactive |
| CDT1 | -0.328 | 0.0478 | -0.623 | inactive |
| GPR160 | -0.229 | 0.647 | 0.267 | inactive |
| UBE2K | 0.0302 | 1.52 | 0.341 | inactive |
| PFDN2 | -1.4 | -1.27 | -1.25 | inactive |
| RGS14 | -1.3 | -1.11 | -0.967 | inactive |
| LOC391542 (retired record) | -0.689 | -1.3 | -1.26 | inactive |
| CPB2 | -0.353 | -0.713 | -0.811 | inactive |
| GFM1 | 0.545 | 0.894 | 0.453 | inactive |
| ZNF773 | -0.0826 | 0.0536 | 0.00913 | inactive |
| LOC441468 (retired record) | 0.785 | -0.296 | -0.612 | inactive |
| RGS7 | -1.56 | -1.52 | -1.46 | inactive |
| C1orf226 | -0.489 | -0.269 | -0.583 | inactive |
| CCDC157 | -0.138 | -0.0451 | -0.575 | inactive |
| RCOR3 | 0.839 | -1.13 | 0.808 | inactive |
| RHPN2 | 0.583 | 0.104 | 0.552 | inactive |
| TGIF2 | 0.192 | 0.276 | 0.703 | inactive |
| ZNF345 | -0.479 | -0.644 | -0.895 | inactive |
| UTY | -1.25 | -0.0097 | -1.12 | inactive |
| ARL11 | 0.689 | -0.42 | 0.227 | inactive |
| ARL2BP | 1.34 | 1.58 | 1.4 | inactive |
| NLGN2 | -1.17 | -1.31 | -1.09 | inactive |
| BACC1 | 2.24 | 2.61 | 1.38 | active |
| TNFRSF10D | 1.11 | 0.747 | 1.01 | inactive |
| CCDC142 | 0.496 | -0.00804 | 0.954 | inactive |
| NTN1 | 0.602 | 0.897 | 0.781 | inactive |
| TPI1 | 0.178 | 1.09 | 0.976 | inactive |
| FKBP1B | 0.165 | 0.519 | -0.0919 | inactive |
| EFCAB13 | 1.64 | 1.12 | 1.06 | inactive |

Part of the list above in another layout:
Target gene	robust z-score, replicate 1	robust z-score, replicate 2	robust z-score, replicate 3	call
HERC1	1.86	4.6	3.89	active
MRPL55	0.203	0.646	0.172	inactive
TACR3	0.562	-1.04	0.526	inactive
SMAD9	1.91	4.39	2.58	active
ADD3	-0.609	-0.623	-0.92	inactive
MMS19	-0.945	-0.989	-0.98	inactive
OSBP	-1.49	-0.697	-0.81	inactive
CACYBP	-1.11	0.0709	1.17	inactive
